From PMC4207760
Results are given in words; binding and its absence hold for the method and conditions named. In cells and extracts the contact can be indirect. Binding calls can cover weak binding; strength is not graded here. Sequences can lack the tags named with a protein.

T1: GFP-tagged wild-type Dab1 (UniProt P97318)
T1 sequence: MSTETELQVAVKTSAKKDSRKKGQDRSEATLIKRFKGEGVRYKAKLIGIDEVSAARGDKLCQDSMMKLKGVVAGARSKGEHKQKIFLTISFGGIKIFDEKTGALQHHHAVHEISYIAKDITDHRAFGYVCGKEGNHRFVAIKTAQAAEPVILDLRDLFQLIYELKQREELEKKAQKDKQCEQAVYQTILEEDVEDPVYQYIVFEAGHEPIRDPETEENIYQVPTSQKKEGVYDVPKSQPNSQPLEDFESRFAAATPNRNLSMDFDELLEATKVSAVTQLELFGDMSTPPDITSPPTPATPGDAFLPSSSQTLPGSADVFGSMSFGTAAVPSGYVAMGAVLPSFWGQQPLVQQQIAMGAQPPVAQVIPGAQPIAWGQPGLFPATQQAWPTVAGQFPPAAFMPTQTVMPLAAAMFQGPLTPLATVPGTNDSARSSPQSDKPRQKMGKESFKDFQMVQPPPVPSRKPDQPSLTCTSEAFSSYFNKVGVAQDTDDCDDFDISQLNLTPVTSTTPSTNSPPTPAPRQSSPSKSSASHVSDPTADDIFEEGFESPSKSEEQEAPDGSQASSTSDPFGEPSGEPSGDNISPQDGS


How the values were obtained:
[1] = biological target: T1, GFP-tagged wild-type Dab1; experiment: co-IP; COS7 cells co-transfected with double-tagged ApoER2 and Fyn, Dab1-GFP, or both; lysates in IP buffer (50 mM Tris-HCl pH 8.0, 4.5 mM NaCl, 1% Nonidet P-40); IP with anti-GFP (Dab1) and blot for HA (ApoER2), or IP with anti-HA (ApoER2) and blot for Dab1-GFP; rabbit or mouse IgG as control; also after DMSO or 10 uM PP2 for 6 hours
[2] = biological target: Double-tagged ApoER2 (HA-ApoER2-myc), wild-type murine Apolipoprotein E Receptor 2 (mouse); experiment: as above

| binding [1] | binding [2] | Molecule |
| --- | --- | --- |
| binds | – | Double-tagged ApoER2 (HA-ApoER2-myc), wild-type murine Apolipoprotein E Receptor 2 (mouse) |
| – | binds | GFP-tagged wild-type Dab1 (protein, UniProt P97318 1-588) MSTETELQVAVKTSAKKDSRKKGQDRSEATLIKRFKGEGVRYKAKLIGIDEVSAARGDKLCQDSMMKLKGVVAGARSKGEHKQKIFLTISFGGIKIFDEKTGALQHHHAVHEISYIAKDITDHRAFGYVCGKEGNHRFVAIKTAQAAEPVILDLRDLFQLIYELKQREELEKKAQKDKQCEQAVYQTILEEDVEDPVYQYIVFEAGHEPIRDPETEENIYQVPTSQKKEGVYDVPKSQPNSQPLEDFESRFAAATPNRNLSMDFDELLEATKVSAVTQLELFGDMSTPPDITSPPTPATPGDAFLPSSSQTLPGSADVFGSMSFGTAAVPSGYVAMGAVLPSFWGQQPLVQQQIAMGAQPPVAQVIPGAQPIAWGQPGLFPATQQAWPTVAGQFPPAAFMPTQTVMPLAAAMFQGPLTPLATVPGTNDSARSSPQSDKPRQKMGKESFKDFQMVQPPPVPSRKPDQPSLTCTSEAFSSYFNKVGVAQDTDDCDDFDISQLNLTPVTSTTPSTNSPPTPAPRQSSPSKSSASHVSDPTADDIFEEGFESPSKSEEQEAPDGSQASSTSDPFGEPSGEPSGDNISPQDGS |
